{"source": "patent US7618816B2", "about": "“Metal-binding therapeutic peptides” (Ontherix, Inc., priority 2005, dated 2009)", "key": {"[1]": {"system": "MCF-7 breast cancer cells", "experiment": "Synergy with nutritional stress", "format": "cell-based", "conditions": "25 ug/ml"}, "[2]": {"system": "MCF7 cancer cells", "experiment": "MBD-mediated antibody uptake", "format": "cell-based", "conditions": "MCF7, 10 minutes; versus no peptide"}}, "note": "Part of at least one peptide drawing is inferred or uncertain, most often the ends. Where a SMILES comes first, the peptide text is derived from it. The star is where a group is joined. Biotin = O=C1N[C@H]2[C@H](CS[C@H]2CCCCC(=O)*)N1"}
{"smiles": "CC[C@H](C)[C@H](NC(=O)[C@H](CC(=O)O)NC(=O)[C@H](CO)NC(=O)[C@H](Cc1ccccc1)NC(=O)[C@@H](NC(=O)[C@H](CCC(=O)O)NC(=O)CCCC[C@@H]1SC[C@@H]2NC(=O)N[C@@H]21)[C@@H](C)O)C(=O)N[C@@H](Cc1c[nH]c2ccccc12)C(=O)N[C@@H](CCCCN)C(=O)N[C@@H](CC(C)C)C(=O)N[C@@H](CC(C)C)C(=O)N[C@@H](CCCCN)C(=O)N[C@@H](CCCCN)C(=O)NCC(=O)N[C@@H](Cc1ccccc1)C(=O)N[C@@H](Cc1ccc(O)cc1)C(=O)N[C@@H](CCCCN)C(=O)N[C@@H](CCCCN)C(=O)N[C@@H](CCCCN)C(=O)N[C@@H](CCC(N)=O)C(=O)N[C@@H](CS)C(=O)N[C@@H](CCCNC(=N)N)C(=O)N1CCC[C@H]1C(=O)N[C@@H](CO)C(=O)N[C@@H](CCCCN)C(=O)NCC(=O)N[C@@H](CCCNC(=N)N)C(=O)N[C@@H](CCCCN)C(=O)N[C@@H](CCCNC(=N)N)C(=O)NCC(=O)N[C@@H](Cc1ccccc1)C(=O)N[C@@H](CS)C(=O)N[C@@H](Cc1c[nH]c2ccccc12)C(=O)O", "note": "[PEP-3] (Biotin-ETFSDIWKLLKKGFYKKKQCRPSKGRKRGFCW-OH)", "values": [{"measurement": "Synergy with nutritional stress", "setting": "[1]", "result": "demonstrable synergy"}, {"measurement": "Uptake of a monoclonal antibody (streptavidin+anti-streptavidin complex)", "setting": "[2]", "result": "efficiently driven"}]}
